Earlier results as cited in patent US20150125471A1, “METHOD AND PHARMACEUTICAL COMPOSITION FOR USE IN THE TREATMENT AND DIAGNOTIC OF ANEMIA OF INFLAMMATION” (INSERM (INSTITUT NATIONAL DE LA SANTE ET DE LA RECHERCHE …, priority 2012, published 2015).
At least one compound was matched to its structure with a doubt left.

System: hepcidin expression
Details: cultured hepatoma-derived cells, zebrafish, mouse, or rat; cited from earlier work

Structure (SMILES): c1cc(-c2cnn3cc(-c4ccc(OCCN5CCCCC5)cc4)cnc23)ccn1 [dorsomorphin]
- induction of hepcidin expression by IL-6, turpentine, or group A streptococcal peptidoglycan-polysaccharide: blocks induction of hepcidin expression
